Test results as given in patent US9307782B2, “Mannanase produced from Cellulosimicrobium sp. strain HY-13” (Korea Research Institute of Bioscience and Biotechnology, priority 2011, dated 2016).
Read-outs that look alike come from different tables or passages of the source.

Columns and labels:
[1] = Optimum reaction temperature and pH of the mannanase; type: biochemical; conditions: maximum degrading activity with locust bean gum
[2] = comparison enzymes of other strains; cited from earlier work

Molecule | Opt. pH [1] | Opt. pH [2] | Opt. temp. [2]
Mannanase: Wild type β-1,4-mannanase of Bacillus subtilis WY34 (protein, cellulosimicrobium, Wild type β-1,4-mannanase of Bacillus subtilis WY34) MRRLFAIVLGAVLALLAVPALAQGASVASDGFSVQDGRIYDANGNRFVPVGVNHAHAWYPSQTQSFADIRAAGANTVRVVLSGGRYGTSSAADVSAVVERCKQNQLVCILENHDTTGYGEDGSARSLASAAQYWTSIASVLRGQERYVMINIGNEPFGNSGFQSWTTDTIAAIRTLRAAGLDHTLVVDAPNWGQDWSFTMRDNAPTVAAADGNVVFSVHMYGVFDTGAEVRAYLDSFTSRGLPIMVGEFGDNHSDGNPDEATIMSYTRSQGIGMLGWSWSGNGGGVEYLDMVNGFSASSLTPWGQRFVHGADGLRARNAPAASVYGGDGGDGDGGAGTAPNGYPYCASASSDPDGDGWGWESSASCVVRGSSADTGSGGGSGSGSTAPNGYPYCASASSDPDGDGWGWESSASCVVRGSSADR | 6.0 | 6.0 | 65 °C
rManH: Recombinant GH5 β-1,4-mannanase of Cellulosimicrobium sp. HY-13 produced in E. coli; SEQ. ID. NO: 1; approximately 44 kDa (protein, cellulosimicrobium, Recombinant GH5 β-1,4-mannanase of Cellulosimicrobium sp; HY-13 produced in E. coli; ID; NO: 1; approximately 44 kDa) MRRLFAIVLGAVLALLAVPALAQGASVASDGFSVQDGRIYDANGNRFVPVGVNHAHAWYPSQTQSFADIRAAGANTVRVVLSGGRYGTSSAADVSAVVERCKQNQLVCILENHDTTGYGEDGSARSLASAAQYWTSIASVLRGQERYVMINIGNEPFGNSGFQSWTTDTIAAIRTLRAAGLDHTLVVDAPNWGQDWSFTMRDNAPTVAAADGNVVFSVHMYGVFDTGAEVRAYLDSFTSRGLPIMVGEFGDNHSDGNPDEATIMSYTRSQGIGMLGWSWSGNGGGVEYLDMVNGFSASSLTPWGQRFVHGADGLRARNAPAASVYGGDGGDGDGGAGTAPNGYPYCASASSDPDGDGWGWESSASCVVRGSSADTGSGGGSGSGSTAPNGYPYCASASSDPDGDGWGWESSASCVVRGSSADR | 6.0 |  | 
